The record followed here is PMC8387950.

Chains of the proteins cited; added tags and fusions are not shown.
UniProt P05413: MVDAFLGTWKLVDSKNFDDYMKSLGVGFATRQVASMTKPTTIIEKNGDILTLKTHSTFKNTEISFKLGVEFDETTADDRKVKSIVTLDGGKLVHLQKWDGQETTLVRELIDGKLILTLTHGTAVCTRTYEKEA
UniProt P07483: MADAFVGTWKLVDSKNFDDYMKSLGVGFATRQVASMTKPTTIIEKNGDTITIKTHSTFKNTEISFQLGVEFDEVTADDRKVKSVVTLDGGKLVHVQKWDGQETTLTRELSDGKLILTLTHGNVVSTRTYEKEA

Results are given in words; binding and its absence hold for the method and conditions named. In cells and extracts the contact can be indirect. Some entries that bind do so weakly or less than the wild type.

Assay [1] deals with T1, PPARα, overexpressed in NRVMs (UniProt P37230).
T1 sequence: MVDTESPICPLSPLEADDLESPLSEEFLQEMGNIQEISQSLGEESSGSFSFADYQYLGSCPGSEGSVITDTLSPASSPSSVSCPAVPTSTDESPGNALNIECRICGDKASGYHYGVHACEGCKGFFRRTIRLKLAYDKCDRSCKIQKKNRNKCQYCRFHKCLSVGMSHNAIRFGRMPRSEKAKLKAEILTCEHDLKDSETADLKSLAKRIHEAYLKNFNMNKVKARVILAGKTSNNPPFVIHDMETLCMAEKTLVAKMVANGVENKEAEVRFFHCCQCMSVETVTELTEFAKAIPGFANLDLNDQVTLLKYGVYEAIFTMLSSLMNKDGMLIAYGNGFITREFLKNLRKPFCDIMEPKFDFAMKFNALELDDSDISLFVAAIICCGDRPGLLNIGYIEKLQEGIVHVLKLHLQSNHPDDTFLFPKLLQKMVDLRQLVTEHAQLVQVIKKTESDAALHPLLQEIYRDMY
Kind of assay: co-IP; NRVMs overexpressing Fabp3 or Pparα, treated with or without Ang II for 24 h; immunoprecipitated with the antibody to the overexpressed protein (FABP3 or PPARα), western blot with indicated antibodies. A general note: In western blotting, separated proteins are transferred to a membrane and probed.

For assay [2], the target named is fatty acid binding protein 3 (FABP3), overexpressed from lentivirus Lenti-F3 (UniProt P05413). The description is as above.

With “FABP3 found in NRVMs with Pparα overexpression (from UniProt P07483 1-133)”, in assay [1], the binding result was “binds”.

B1: PPARα found in NRVMs with Fabp3 overexpression (protein, UniProt P37230 1-468)
chain: T1 sequence
Consider B1, for which the binding result in assay [2] is given as “binds”.
